Source: article PMC10076346
Results are given in words; binding and its absence hold for the method and conditions named. In cells and extracts the contact can be indirect. Some binding calls cover weakened binding; strength is not graded here.

Sequences of proteins named here, by UniProt entry; tags and fusion partners are left off.
UniProt P17844: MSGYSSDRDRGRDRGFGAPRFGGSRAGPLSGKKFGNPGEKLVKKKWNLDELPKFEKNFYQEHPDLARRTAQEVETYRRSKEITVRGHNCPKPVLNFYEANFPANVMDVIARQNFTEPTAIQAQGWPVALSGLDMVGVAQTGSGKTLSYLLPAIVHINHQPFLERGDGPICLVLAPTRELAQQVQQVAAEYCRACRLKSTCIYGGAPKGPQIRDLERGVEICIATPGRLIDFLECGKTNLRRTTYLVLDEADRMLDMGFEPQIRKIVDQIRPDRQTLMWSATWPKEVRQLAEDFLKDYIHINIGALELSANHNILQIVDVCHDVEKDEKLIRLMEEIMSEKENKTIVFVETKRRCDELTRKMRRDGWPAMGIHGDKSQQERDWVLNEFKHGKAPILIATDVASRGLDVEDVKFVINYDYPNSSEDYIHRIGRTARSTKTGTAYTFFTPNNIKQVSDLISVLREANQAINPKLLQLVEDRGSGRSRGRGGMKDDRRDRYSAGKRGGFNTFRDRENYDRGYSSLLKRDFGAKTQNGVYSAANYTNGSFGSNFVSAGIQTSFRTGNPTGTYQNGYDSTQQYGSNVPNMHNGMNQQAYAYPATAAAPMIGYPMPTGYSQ
UniProt Q86U44: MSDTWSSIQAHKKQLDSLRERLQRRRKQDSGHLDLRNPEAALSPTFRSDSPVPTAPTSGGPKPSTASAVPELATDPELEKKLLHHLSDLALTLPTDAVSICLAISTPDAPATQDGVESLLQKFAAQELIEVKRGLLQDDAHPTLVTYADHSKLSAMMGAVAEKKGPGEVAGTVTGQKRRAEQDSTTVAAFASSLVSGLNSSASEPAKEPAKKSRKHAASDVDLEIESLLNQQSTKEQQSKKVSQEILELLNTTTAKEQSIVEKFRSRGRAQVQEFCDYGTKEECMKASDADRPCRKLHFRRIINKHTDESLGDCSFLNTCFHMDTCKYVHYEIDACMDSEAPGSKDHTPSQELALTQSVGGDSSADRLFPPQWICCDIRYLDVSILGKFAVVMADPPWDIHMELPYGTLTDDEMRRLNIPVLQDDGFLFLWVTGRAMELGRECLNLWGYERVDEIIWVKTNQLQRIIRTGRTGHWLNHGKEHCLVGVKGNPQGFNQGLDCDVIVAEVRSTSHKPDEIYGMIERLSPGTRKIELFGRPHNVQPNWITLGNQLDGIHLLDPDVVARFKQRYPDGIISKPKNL

B1: Drosha (protein, UniProt Q9NRR4 1-1374)
chain: MMQGNTCHRMSFHPGRGCPRGRGGHGARPSAPSFRPQNLRLLHPQQPPVQYQYEPPSAPSTTFSNSPAPNFLPPRPDFVPFPPPMPPSAQGPLPPCPIRPPFPNHQMRHPFPVPPCFPPMPPPMPCPNNPPVPGAPPGQGTFPFMMPPPSMPHPPPPPVMPQQVNYQYPPGYSHHNFPPPSFNSFQNNPSSFLPSANNSSSPHFRHLPPYPLPKAPSERRSPERLKHYDDHRHRDHSHGRGERHRSLDRRERGRSPDRRRQDSRYRSDYDRGRTPSRHRSYERSRERERERHRHRDNRRSPSLERSYKKEYKRSGRSYGLSVVPEPAGCTPELPGEIIKNTDSWAPPLEIVNHRSPSREKKRARWEEEKDRWSDNQSSGKDKNYTSIKEKEPEETMPDKNEEEEEELLKPVWIRCTHSENYYSSDPMDQVGDSTVVGTSRLRDLYDKFEEELGSRQEKAKAARPPWEPPKTKLDEDLESSSESECESDEDSTCSSSSDSEVFDVIAEIKRKKAHPDRLHDELWYNDPGQMNDGPLCKCSAKARRTGIRHSIYPGEEAIKPCRPMTNNAGRLFHYRITVSPPTNFLTDRPTVIEYDDHEYIFEGFSMFAHAPLTNIPLCKVIRFNIDYTIHFIEEMMPENFCVKGLELFSLFLFRDILELYDWNLKGPLFEDSPPCCPRFHFMPRFVRFLPDGGKEVLSMHQILLYLLRCSKALVPEEEIANMLQWEELEWQKYAEECKGMIVTNPGTKPSSVRIDQLDREQFNPDVITFPIIVHFGIRPAQLSYAGDPQYQKLWKSYVKLRHLLANSPKVKQTDKQKLAQREEALQKIRQKNTMRREVTVELSSQGFWKTGIRSDVCQHAMMLPVLTHHIRYHQCLMHLDKLIGYTFQDRCLLQLAMTHPSHHLNFGMNPDHARNSLSNCGIRQPKYGDRKVHHMHMRKKGINTLINIMSRLGQDDPTPSRINHNERLEFLGDAVVEFLTSVHLYYLFPSLEEGGLATYRTAIVQNQHLAMLAKKLELDRFMLYAHGPDLCRESDLRHAMANCFEALIGAVYLEGSLEEAKQLFGRLLFNDPDLREVWLNYPLHPLQLQEPNTDRQLIETSPVLQKLTEFEEAIGVIFTHVRLLARAFTLRTVGFNHLTLGHNQRMEFLGDSIMQLVATEYLFIHFPDHHEGHLTLLRSSLVNNRTQAKVAEELGMQEYAITNDKTKRPVALRTKTLADLLESFIAALYIDKDLEYVHTFMNVCFFPRLKEFILNQDWNDPKSQLQQCCLTLRTEGKEPDIPLYKTLQTVGPSHARTYTVAVYFKGERIGCGKGPSIQQAEMGAAMDALEKYNFPQMAHQKRFIERKYRQELKEMRWEREHQEREPDETEDIKK

Biological target: ATP-dependent RNA helicase DEAD box helicase 5 (DDX5) (human (endogenous in RD)) (UniProt P17844)
Assay: co-IP; endogenous DDX5 IP (Dynabeads Protein G) or YTHDC1 IP (Dynabeads Protein A) from RD whole-cell lysate; co-IP buffer 50 mM Tris-HCl pH 7.5, 150 mM NaCl, 1 mM EDTA, 0.25% NP-40, 5% glycerol; antibody overnight at 4 °C; western blot

Row | Molecule | binding
1 | METTL3 (from UniProt Q86U44 1-580) | binds
2 | B1 | binds
